Assay results reported in publication PMC10742089.

Key:
[1] = biological target: mEGFP-iso6 (FMRP nuclear isoform iso6 fused to GFP) (human) (UniProt Q06787); assay: affinity purification with mass spectrometry; stringent conditions: GFP-Trap on whole-cell lysate of U2OS stably expressing GFP-iso6 or GFP-iso1, half the number of cells of the first screen, 6 GFP-free U2OS controls, <=1% FDR; cells mock-treated or treated with aphidicolin (APH) for 24 h
[2] = biological target: mEGFP-iso6 (FMRP nuclear isoform iso6 fused to GFP) (human) (UniProt Q06787); assay: affinity purification with mass spectrometry; first screen (mild stringency): GFP-Trap magnetic agarose on whole-cell lysate of U2OS stably expressing GFP-iso6, lysate treated with turbonuclease, 2 h at 4 C; LC-MS/MS; SAINTexpress against 2 GFP-free U2OS controls, <1% FDR and fold change >1.5

B1: WDR3 (protein, UniProt Q9UNX4 1-943)
chain: MGLTKQYLRYVASAVFGVIGSQKGNIVFVTLRGEKGRYVAVPACEHVFIWDLRKGEKILILQGLKQEVTCLCPSPDGLHLAVGYEDGSIRIFSLLSGEGNVTFNGHKAAITTLKYDQLGGRLASGSKDTDIIVWDVINESGLYRLKGHKDAITQALFLREKNLLVTSGKDTMVKWWDLDTQHCFKTMVGHRTEVWGLVLLSEEKRLITGASDSELRVWDIAYLQEIEDPEEPDPKKIKGSSPGIQDTLEAEDGAFETDEAPEDRILSCRKAGSIMREGRDRVVNLAVDKTGRILACHGTDSVLELFCILSKKEIQKKMDKKMKKARKKAKLHSSKGEEEDPEVNVEMSLQDEIQRVTNIKTSAKIKSFDLIHSPHGELKAVFLLQNNLVELYSLNPSLPTPQPVRTSRITIGGHRSDVRTLSFSSDNIAVLSAAADSIKIWNRSTLQCIRTMTCEYALCSFFVPGDRQVVIGTKTGKLQLYDLASGNLLETIDAHDGALWSMSLSPDQRGFVTGGADKSVKFWDFELVKDENSTQKRLSVKQTRTLQLDEDVLCVSYSPNQKLLAVSLLDCTVKIFYVDTLKFFLSLYGHKLPVICMDISHDGALIATGSADRNVKIWGLDFGDCHKSLFAHDDSVMYLQFVPKSHLFFTAGKDHKIKQWDADKFEHIQTLEGHHQEIWCLAVSPSGDYVVSSSHDKSLRLWERTREPLILEEEREMEREAEYEESVAKEDQPAVPGETQGDSYFTGKKTIETVKAAERIMEAIELYREETAKMKEHKAICKAAGKEVPLPSNPILMAYGSISPSAYVLEIFKGIKSSELEESLLVLPFSYVPDILKLFNEFIQLGSDVELICRCLFFLLRIHFGQITSNQMLVPVIEKLRETTISKVSQVRDVIGFNMAGLDYLKRECEAKSEVMFFADATSHLEEKKRKRKKREKLILTLT
B1 was tested, and the binding [1] was “binds” and the binding [2] was “binds”.

B2: CPSF1 (protein, UniProt Q10570 1-1443)
chain: MYAVYKQAHPPTGLEFSMYCNFFNNSERNLVVAGTSQLYVYRLNRDAEALTKNDRSTEGKAHREKLELAASFSFFGNVMSMASVQLAGAKRDALLLSFKDAKLSVVEYDPGTHDLKTLSLHYFEEPELRDGFVQNVHTPRVRVDPDGRCAAMLVYGTRLVVLPFRRESLAEEHEGLVGEGQRSSFLPSYIIDVRALDEKLLNIIDLQFLHGYYEPTLLILFEPNQTWPGRVAVRQDTCSIVAISLNITQKVHPVIWSLTSLPFDCTQALAVPKPIGGVVVFAVNSLLYLNQSVPPYGVALNSLTTGTTAFPLRTQEGVRITLDCAQATFISYDKMVISLKGGEIYVLTLITDGMRSVRAFHFDKAAASVLTTSMVTMEPGYLFLGSRLGNSLLLKYTEKLQEPPASAVREAADKEEPPSKKKRVDATAGWSAAGKSVPQDEVDEIEVYGSEAQSGTQLATYSFEVCDSILNIGPCANAAVGEPAFLSEEFQNSPEPDLEIVVCSGHGKNGALSVLQKSIRPQVVTTFELPGCYDMWTVIAPVRKEEEDNPKGEGTEQEPSTTPEADDDGRRHGFLILSREDSTMILQTGQEIMELDTSGFATQGPTVFAGNIGDNRYIVQVSPLGIRLLEGVNQLHFIPVDLGAPIVQCAVADPYVVIMSAEGHVTMFLLKSDSYGGRHHRLALHKPPLHHQSKVITLCLYRDLSGMFTTESRLGGARDELGGRSGPEAEGLGSETSPTVDDEEEMLYGDSGSLFSPSKEEARRSSQPPADRDPAPFRAEPTHWCLLVRENGTMEIYQLPDWRLVFLVKNFPVGQRVLVDSSFGQPTTQGEARREEATRQGELPLVKEVLLVALGSRQSRPYLLVHVDQELLIYEAFPHDSQLGQGNLKVRFKKVPHNINFREKKPKPSKKKAEGGGAEEGAGARGRVARFRYFEDIYGYSGVFICGPSPHWLLVTGRGALRLHPMAIDGPVDSFAPFHNVNCPRGFLYFNRQGELRISVLPAYLSYDAPWPVRKIPLRCTAHYVAYHVESKVYAVATSTNTPCARIPRMTGEEKEFETIERDERYIHPQQEAFSIQLISPVSWEAIPNARIELQEWEHVTCMKTVSLRSEETVSGLKGYVAAGTCLMQGEEVTCRGRILIMDVIEVVPEPGQPLTKNKFKVLYEKEQKGPVTALCHCNGHLVSAIGQKIFLWSLRASELTGMAFIDTQLYIHQMISVKNFILAADVMKSISLLRYQEESKTLSLVSRDAKPLEVYSVDFMVDNAQLGFLVSDRDRNLMVYMYLPEAKESFGGMRLLRRADFHVGAHVNTFWRTPCRGATEGLSKKSVVWENKHITWFATLDGGIGLLLPMQEKTYRRLLMLQNALTTMLPHHAGLNPRAFRMLHVDRRTLQNAVRNVLDGELLNRYLYLSTMERSELAKKIGTTPDIILDDLLETDRVTAHF
B2 was tested, and the binding [1] was “binds” and the binding [2] was “binds”.

Results are given in words; binding and its absence hold for the method and conditions named. In cells and extracts the contact can be indirect. A yes stands for co-enrichment or nearness to the bait. Other partners may have been found.
